Results reported in the supplement of paper PMC3334620.
Whole data set: some 33,000 sequences, median “E-score (-0.5 to 0.5)” near -0.015, cut for the highest 2% near 0.3. The list shows a part of the results.

These sequences were tested against T1, Abf1 (UniProt P14164) (assay: PBM E-score (8-mer binding enrichment) (E-score (-0.5 to 0.5)); higher = stronger / more preferred TF binding). Conditions: protein concentration: 200 nM; construct: GST-full length.
T1 sequence: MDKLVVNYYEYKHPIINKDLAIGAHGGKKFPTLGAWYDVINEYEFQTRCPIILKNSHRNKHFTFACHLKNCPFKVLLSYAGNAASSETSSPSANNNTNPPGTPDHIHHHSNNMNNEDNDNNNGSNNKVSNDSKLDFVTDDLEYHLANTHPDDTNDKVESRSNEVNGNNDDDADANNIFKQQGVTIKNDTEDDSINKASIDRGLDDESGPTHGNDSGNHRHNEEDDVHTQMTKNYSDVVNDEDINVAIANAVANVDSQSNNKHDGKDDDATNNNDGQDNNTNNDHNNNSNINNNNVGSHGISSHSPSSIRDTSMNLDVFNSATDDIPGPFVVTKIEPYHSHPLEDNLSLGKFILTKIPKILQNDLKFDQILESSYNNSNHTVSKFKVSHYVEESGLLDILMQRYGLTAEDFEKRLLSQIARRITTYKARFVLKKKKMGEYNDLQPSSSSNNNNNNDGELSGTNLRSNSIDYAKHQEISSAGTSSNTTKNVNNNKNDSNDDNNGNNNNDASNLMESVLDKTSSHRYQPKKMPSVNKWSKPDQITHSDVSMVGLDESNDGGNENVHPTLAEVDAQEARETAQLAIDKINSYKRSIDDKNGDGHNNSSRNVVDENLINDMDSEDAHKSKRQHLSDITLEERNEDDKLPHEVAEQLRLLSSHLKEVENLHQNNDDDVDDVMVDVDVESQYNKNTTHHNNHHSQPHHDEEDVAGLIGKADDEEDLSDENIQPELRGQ
Summary of the method: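 Bound GST-tagged yeast transcription factors, applied at about 100-200 nM to double-stranded universal all-10-mer Agilent arrays, were detected with fluorescent anti-GST. Scans were normalised with masliner. A modified Wilcoxon-Mann-Whitney statistic, the E-score, was assigned to each ungapped eight-base word pooled with its reverse complement by the Universal PBM Analysis Suite.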

| Sequence | PBM E-score |
| --- | --- |
| AGTTTGCA | -0.154 |
| CCGATCCC | -0.198 |
| CACAGATC | -0.0494 |
| AATGGGTC | -0.274 |
| CGTCGTAA | 0.392 |
| AAATTCTG | -0.00748 |
| AAGATTGG | -0.00117 |
| GGCACGAC | 0.289 |
| AGAGACTA | -0.115 |
| CACAGCTC | -0.127 |
| ACCTAGTG | 0.111 |
| CAACTTCC | 0.102 |
| GTCAGTTA | -0.162 |
| CCGGCAAA | -0.17 |
| GTAATAAA | 0.313 |
| AGCACAAT | -0.0604 |
| ACACCATC | -0.0484 |
| AAAGACAA | 0.102 |
| ACCTGTTC | 0.0955 |
| CATGTGGG | -0.135 |
| CACAGTGA | 0.109 |
| AACGGTTC | 0.0372 |
| ATCTACTG | 0.0439 |
| GCACGTTA | -5e-05 |
| ACCGACGT | -0.0248 |

Individual results from the entries so far.
In PBM E-score, AGCACAAT shows -0.0604
In PBM E-score, GCACGTTA shows -5e-05

(further entries)

| Sequence | PBM E-score |
| --- | --- |
| ACCATAAT | 0.0844 |
| CATTCACA | -0.00351 |
| ACTTGCTC | -0.0791 |
| CCCAGGCG | -0.179 |
| CTCTTCTC | -0.179 |
| CATGTTTA | 0.0422 |
| AGATGTGA | 0.00968 |
| AAGCAATT | 0.191 |
| TATGAAGA | 0.0705 |
| GCATTTTA | 0.0568 |
| CGTGTGAG | 0.219 |
| AAAACTCA | -0.0674 |
| ACGGCACT | 0.102 |
| GAATGATA | 0.397 |
| CATCGACC | -0.0355 |
| ACAGCTAT | -0.111 |
| CCGTCCTA | 0.0811 |
| GCTGTTAA | 0.0115 |
| CAGTGACG | 0.239 |
| ACGCGTTG | 0.0895 |
| AGGAATCC | -0.106 |
| CCAGTTCG | 0.119 |
| CTTACGCC | -0.0903 |
| ATCGGGTA | -0.0907 |
| TACATCGA | -0.0815 |

Given field by field: entries from further up
GCATTTTA
  PBM E-score: 0.0568
CGTGTGAG
  PBM E-score: 0.219
AAAACTCA
  PBM E-score: -0.0674
ACGGCACT
  PBM E-score: 0.102

(next part)

| Sequence | PBM E-score |
| --- | --- |
| ACGCTGAC | 0.0473 |
| CAGGCCCA | -0.359 |
| GTACCAAC | 0.168 |
| ATCGAAAC | -0.0871 |
| GCCTAAAA | -0.0529 |
| CCTGCGCA | 0.0316 |
| GCCAACCC | -0.305 |
| GAGGTTAA | -0.0379 |
| AGCGATTC | -0.0229 |
| ATTTTATC | 0.264 |
| AGAGGCCC | -0.241 |
| ACGCTACC | -0.158 |
| AAATACGA | 0.333 |
| ACTCCTTG | -0.079 |
| CTGCTACC | -0.0567 |
| AGTGAACG | 0.0418 |
| CCATAGTA | 0.036 |
| CAATTACC | 0.168 |
| GCTTAGTA | 0.0807 |
| ATTCTCGA | 0.139 |
| ATCGTGAC | 0.255 |
| CTTTCGCA | -0.158 |
| CTTCGGTC | -0.00863 |
| ATCTAAAT | 0.0481 |
| CGCCGGAG | 0.0442 |

| Sequence | PBM E-score |
| --- | --- |
| AACTAAAC | -0.0643 |
| GCCATCGA | -0.072 |
| CAGGAGGC | -0.18 |
| GGGGTCCA | -0.264 |
| ACGAGGCA | -0.0591 |
| CAAGGTAG | -0.0812 |
| CGGTCGTA | 0.0721 |
| GCAAAAGC | -0.0503 |
| CGGCAAAA | -0.0905 |
| CACGAGGC | 0.0559 |
| GATGTAGC | 0.0818 |
| GGAAGTCC | -0.125 |
| ATCAGACC | -0.189 |
| AATATGCA | -0.092 |
| ATCGCAAC | 0.0426 |
| AATGAGCT | 0.0503 |
| TCTCACAA | -0.0858 |
| ACCTCTTA | 0.0377 |
| AAAGGCTC | -0.0956 |
| ATCAAAAC | 0.0447 |
| CGTCGATA | 0.286 |
| GACTATCA | 0.0884 |
| CAGTTGGA | -0.0179 |
| CTGATTCA | -0.235 |
| GAAGAGTC | -0.13 |

Fetched one by one from the list above:

| Sequence | PBM E-score |
| --- | --- |
| GCAAAAGC | -0.0503 |
| CAAGGTAG | -0.0812 |
| AAAGGCTC | -0.0956 |

(listing goes on)

| Sequence | PBM E-score |
| --- | --- |
| CCCTGATA | -0.0568 |
| AGGGCGAG | -0.208 |
| AGTAATCC | 0.0355 |
| ACGAGGGC | 0.0879 |
| GCCTCATA | -0.0715 |
| ACGGATGG | 0.0326 |
| ATGTTAAA | 0.162 |
| CATTGCCC | -0.064 |
| GACAGCAA | 0.0485 |
| ACTGGTCG | -0.0382 |
| ACTCAAGC | -0.079 |
| GATCGCAC | 0.0529 |
| CTGGACCC | -0.279 |
| ACGATCTA | 0.28 |
| CGGTAAAG | -0.0501 |
| ATCCGCGG | 0.0986 |
| CTACCACC | -0.163 |
| GTGACCCA | 0.0879 |
| CGTGCACG | 0.419 |
| AATTGAAT | 0.0581 |
| CCACCACC | -0.111 |
| GATGTTTA | 0.0523 |
| ATAATAGA | 0.159 |
| CGACCACC | 0.0636 |
| CATACATA | 0.0675 |

| Sequence | PBM E-score |
| --- | --- |
| AATCGAGT | -0.042 |
| ATACACGA | 0.179 |
| AGACAGGC | -0.243 |
| AAGGTCCT | -0.181 |
| AGTGTTCG | -0.0474 |
| CGATACCC | 0.0289 |
| AATAACGA | 0.325 |
| TAAAATTA | 0.165 |
| AGAACCCG | -0.194 |
| ATTTATCC | 0.317 |
| TCATAACA | 0.117 |
| ATCTCTAA | 0.0536 |
| CCTTACGA | 0.0463 |
| GAAATTAA | 0.177 |
| CACTCTCA | 0.00441 |
| ACAGATCA | 0.188 |
| GGCGTGGA | -0.174 |
| CACATAGA | -0.0932 |
| CACAGACC | -0.0678 |
| CTCCGTTC | -0.0907 |
| AATCTAGC | -0.181 |
| GCATCAGC | -0.113 |
| TCCCAAAA | 0.0198 |
| TAGCATCA | 0.0286 |
| AATCTGAA | -0.124 |

| Sequence | PBM E-score |
| --- | --- |
| CGTCTCGC | -0.021 |
| AGCAACTC | -0.135 |
| ACGGCCAA | -0.0291 |
| CAAGCAGG | -0.35 |
| GGGCTAGA | -0.192 |
| AATGCTAT | 0.164 |
| AAACCGTC | 0.0248 |
| TACTTCGA | 0.178 |
| ACGTAAAC | -0.125 |
| AGGCATGA | -0.0285 |
| TCGAAAAA | 0.157 |
| ACTCCTCC | -0.152 |
| TCTCCTAA | -0.048 |
| AAGCCTCA | -0.303 |
| AACAGCGC | -0.169 |
| GGTTCCAA | -0.0572 |
| ACAACTAG | -0.289 |
| CAAATGCC | -0.272 |
| CCGAGCGA | 0.0102 |
| GGGATAAC | 0.0508 |
| AATAGGCT | 0.0202 |
| AAGACCCG | -0.189 |
